Source: article doi:10.1101/2021.03.09.434543
Results are given in words; binding and its absence hold for the method and conditions named. Binding calls can cover weak binding; strength is not graded here.

Amino acid sequences for entries named in this document (tags omitted).
UniProt Q8VWH2: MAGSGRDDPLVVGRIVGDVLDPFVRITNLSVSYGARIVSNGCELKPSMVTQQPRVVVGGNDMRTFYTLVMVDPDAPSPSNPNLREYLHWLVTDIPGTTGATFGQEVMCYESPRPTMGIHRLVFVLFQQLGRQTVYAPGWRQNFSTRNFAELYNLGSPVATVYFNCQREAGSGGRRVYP
UniProt Q93WI9: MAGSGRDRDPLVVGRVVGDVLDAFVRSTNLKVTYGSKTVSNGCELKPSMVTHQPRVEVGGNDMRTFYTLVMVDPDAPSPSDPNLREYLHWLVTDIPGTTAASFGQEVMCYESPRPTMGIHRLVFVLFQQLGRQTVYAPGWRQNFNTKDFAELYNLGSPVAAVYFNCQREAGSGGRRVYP

target: OsbZIP62/OsFD7, yeast two-hybrid fusion (rice (Oryza sativa)) (UniProt B7F384); test: two-hybrid

binding, binds:
RFT1 (OsFTL3), yeast two-hybrid fusion (from UniProt Q8VWH2 1-178)
OsFTL1, yeast two-hybrid fusion (from UniProt B7ELI3)
Hd3a (OsFTL2), yeast two-hybrid fusion (from UniProt Q93WI9 1-179)
